Source: PubChem BioAssay AID192 (DTP/NCI, 2004)
The list shows only some results of the screen, not a fair sample: it is rich in T/C values a quarter to a half above the control, in often repeated tests (any T/C) and in doses without a T/C. Further doses and runs are listed elsewhere. T/C gives the treated animals as a percentage of the vehicle group. Some doses have a count of surviving animals in place of a T/C: the source files T/C as zero there, which appears to mark a toxic dose or a test without result, not a measured value. Some doses without a T/C left all or most animals alive at the check, yet need not have been tolerated: survival well below the control is almost never listed, so the zero probably covers shortened survival too. Survivors were counted at the toxicity check, usually on the fifth day, unless a day is given; later deaths do not show. Schedules are NCI's codes, read here as Q, the interval in days (D) or hours (H), X, the number of doses. Some doses were run more than once; their values stand side by side, smallest first. Where survival is the endpoint, this PubChem deposit counts one and a half times the control or more as active, and values a quarter to a half above the control carry no call in these data; other NCI protocols may use other cut-offs.

Tested on: BDF1 mice, B16 melanoma ip, median survival T/C
Test: NCI In Vivo Anticancer Drug Screen. Data for tumor model B16 Melanoma (intraperitoneal) in B6D2F1 (BDF1) mice
Details: T/C endpoint: median survival time, higher T/C = longer survival
Summary of the method: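 Read-out: survival or tumor size, given as treated/control ratio. Controls received vehicle only; animals bore transplantable tumors.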

[1] = dose: 400.0 mg/kg/injection, schedule: Q01DX009 (ip), vehicle: saline with Tween-80

Question: What does the source list for `C=C1C(=O)O[C@@H]2/C=C(\C)CC/C=C(/COC(C)=O)C[C@@H](OC(C)=O)[C@@H]12`?
Answer: survivor count (dose: 4.5 mg/kg/injection, schedule: Q01DX009 (ip), vehicle: acetone): 9 of 10; survivor count (dose: 9.0 mg/kg/injection, schedule: Q01DX009 (ip), vehicle: acetone): 10 of 10; T/C (dose: 36.0 mg/kg/injection, schedule: Q01DX009 (ip), vehicle: acetone): 139 % of control

Question: `CC1CCC2(CC1)CCN(CCCN(C)C)CC2` was tested. Which survivor count (dose: 200.0 mg/kg/injection, schedule: Q01DX009 (ip), vehicle: saline) did it give?
Answer: 5 of 10

Question: With `CCCCOc1ccc(NC(N)=Nc2ccc(Cl)cc2)cc1` as the compound, how does the survivor count (dose: 50.0 mg/kg/injection, schedule: Q01DX009 (ip), vehicle: saline with Tween-80) read?
Answer: 4 of 6

Question: Which results are given for `CC[C@]12CN3CCc4c([nH]c5ccccc45)[C@@](C(=O)OC)(c4cc5c(cc4OC)N(C)[C@H]4[C@@](O)(C(=O)OC)[C@H](OC(C)=O)[C@]6(CC)C=CCN7CC[C@]54[C@@H]76)CC(C3)[C@H]1O2` (some centres undefined)?
Answer: survivor count (dose: 0.38 mg/kg/injection, schedule: Q01DX009 (ip), vehicle: saline): 10 of 10; T/C (dose: 3.0 mg/kg/injection, schedule: Q01DX009 (ip), vehicle: Klucel (hydroxypropylcellulose) (HPC)): 135 % of control; T/C (dose: 3.0 mg/kg/injection, schedule: Q01DX009 (ip), vehicle: saline, evaluated on day 45): 130 % of control; T/C (dose: 3.0 mg/kg/injection, schedule: Q01DX009 (ip), vehicle: saline, evaluated on day 60): 129 % of control; T/C (dose: 6.0 mg/kg/injection, schedule: Q01DX009 (ip), vehicle: Klucel (hydroxypropylcellulose) (HPC)): 138 % of control; T/C (dose: 6.0 mg/kg/injection, schedule: Q04DX003 (ip), vehicle: saline): 147 % of control; survivor count (dose: 12.0 mg/kg/injection, schedule: Q01DX009 (ip), vehicle: saline): 5 of 6; survivor count (dose: 24.0 mg/kg/injection, schedule: Q01DX009 (ip), vehicle: saline): 8 of 10; survivor count (dose: 24.0 mg/kg/injection, schedule: Q04DX003 (ip), vehicle: saline): 3 of 6

Question: `OC1(c2ccccc2)c2ccc(Br)cc2-c2cc(Br)ccc21` was tested. Which survivor count [1] did it give?
Answer: 10 of 10

Question: `CC1=CC(C)(C)Nc2ccc(CSc3ccccc3)cc21` was tested. Which survivor count (dose: 12.5 mg/kg/injection, schedule: Q01DX009 (ip), vehicle: DMSO) did it give?
Answer: 10 of 10 and 8 of 8

Question: And the survivor count (dose: 25.0 mg/kg/injection, schedule: Q01DX009 (ip), vehicle: DMSO)?
Answer: 10 of 10 and 8 of 8

Question: What about the survivor count (dose: 50.0 mg/kg/injection, schedule: Q01DX009 (ip), vehicle: DMSO) of the same compound?
Answer: 10 of 10 and 7 of 7

Question: And the survivor count (dose: 100.0 mg/kg/injection, schedule: Q01DX009 (ip), vehicle: DMSO)?
Answer: 5 of 8 and 9 of 10

Question: What about the survivor count (dose: 200.0 mg/kg/injection, schedule: Q01DX009 (ip), vehicle: DMSO) of the same compound?
Answer: 2 of 10 and 3 of 8

Question: And the survivor count (dose: 200.0 mg/kg/injection, schedule: Q01DX009 (ip), vehicle: saline + Tween-80 + alcohol)?
Answer: 5 of 10

Question: And the survivor count (dose: 400.0 mg/kg/injection, schedule: Q01DX009 (ip), vehicle: DMSO)?
Answer: 0 of 10 and 0 of 8

Question: What about the survivor count (dose: 400.0 mg/kg/injection, schedule: Q01DX009 (ip), vehicle: saline + Tween-80 + alcohol) of the same compound?
Answer: 0 of 10

Question: Which survivor count (dose: 400.0 mg/kg/injection, schedule: Q01DX009 (ip), vehicle: other) does the source give for `CCCCCCC(=O)CCCC` here?
Answer: 8 of 10

Question: How did the survivor count (dose: 50.0 mg/kg/injection, schedule: Q04DX003 (ip), vehicle: Klucel (hydroxypropylcellulose) (HPC)) turn out when `O=C(CBr)c1ccc(-c2ccccc2)cc1` was run?
Answer: 9 of 10

Question: And the survivor count (dose: 100.0 mg/kg/injection, schedule: Q01DX009 (ip), vehicle: Klucel (hydroxypropylcellulose) (HPC))?
Answer: 7 of 10

Question: And the survivor count (dose: 100.0 mg/kg/injection, schedule: Q04DX003 (ip), vehicle: Klucel (hydroxypropylcellulose) (HPC))?
Answer: 9 of 10

Question: What about the survivor count (dose: 200.0 mg/kg/injection, schedule: Q01DX009 (ip), vehicle: Klucel (hydroxypropylcellulose) (HPC)) of the same compound?
Answer: 1 of 10

Question: And the survivor count (dose: 200.0 mg/kg/injection, schedule: Q04DX003 (ip), vehicle: Klucel (hydroxypropylcellulose) (HPC))?
Answer: 4 of 10

Question: For `COc1ccccc1NC(=O)Nc1ccccc1Cl`, which survivor count (dose: 100.0 mg/kg/injection, schedule: Q01DX009 (ip), vehicle: saline with Tween-80) is on record?
Answer: 10 of 10

Question: And the survivor count (dose: 200.0 mg/kg/injection, schedule: Q01DX009 (ip), vehicle: saline with Tween-80)?
Answer: 10 of 10

Question: What about the survivor count [1] of the same compound?
Answer: 10 of 10

Question: How did the survivor count (dose: 24.0 mg/kg/injection, schedule: Q01DX001 (ip), vehicle: water) turn out when `COc1cccc2c1C(=O)c1c(O)c3c(c(O)c1C2=O)C[C@@](O)(C(=O)COC(=O)c1cccnc1)C[C@@H]3OC1CC(N)C(O)C(C)O1` (some centres undefined) was run?
Answer: 10 of 10

Question: For `CCC(C)C(NC(=O)OC(C)(C)c1ccc(-c2ccccc2)cc1)C(=O)O` (centres undefined), which survivor count [1] is on record?
Answer: 0 of 10
